{"sequences": {"note": "The chains behind the UniProt entries cited, without tags or fusion partners.", "UniProt P46935": "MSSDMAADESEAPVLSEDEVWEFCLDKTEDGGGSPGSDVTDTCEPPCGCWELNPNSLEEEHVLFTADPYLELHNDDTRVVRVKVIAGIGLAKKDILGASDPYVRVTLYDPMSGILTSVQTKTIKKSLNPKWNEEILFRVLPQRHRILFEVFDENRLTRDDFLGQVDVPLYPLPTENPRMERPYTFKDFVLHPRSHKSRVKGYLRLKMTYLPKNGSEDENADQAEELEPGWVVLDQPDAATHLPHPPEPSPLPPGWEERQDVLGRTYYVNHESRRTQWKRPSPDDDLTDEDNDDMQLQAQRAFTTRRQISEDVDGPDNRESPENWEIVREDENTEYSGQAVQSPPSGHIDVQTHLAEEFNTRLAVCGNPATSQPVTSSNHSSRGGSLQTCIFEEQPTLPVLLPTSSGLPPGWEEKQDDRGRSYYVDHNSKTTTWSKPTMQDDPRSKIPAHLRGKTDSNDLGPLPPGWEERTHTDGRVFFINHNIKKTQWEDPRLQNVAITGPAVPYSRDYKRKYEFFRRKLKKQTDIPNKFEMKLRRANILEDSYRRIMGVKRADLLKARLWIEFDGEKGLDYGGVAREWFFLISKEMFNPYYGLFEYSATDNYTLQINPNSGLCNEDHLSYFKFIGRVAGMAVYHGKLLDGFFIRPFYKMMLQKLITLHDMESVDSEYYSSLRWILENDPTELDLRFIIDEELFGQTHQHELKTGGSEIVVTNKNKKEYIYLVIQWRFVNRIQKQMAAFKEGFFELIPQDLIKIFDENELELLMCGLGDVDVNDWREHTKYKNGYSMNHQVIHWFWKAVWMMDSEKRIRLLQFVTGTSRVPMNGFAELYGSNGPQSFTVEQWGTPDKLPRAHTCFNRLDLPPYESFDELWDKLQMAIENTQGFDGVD", "UniProt P29341": "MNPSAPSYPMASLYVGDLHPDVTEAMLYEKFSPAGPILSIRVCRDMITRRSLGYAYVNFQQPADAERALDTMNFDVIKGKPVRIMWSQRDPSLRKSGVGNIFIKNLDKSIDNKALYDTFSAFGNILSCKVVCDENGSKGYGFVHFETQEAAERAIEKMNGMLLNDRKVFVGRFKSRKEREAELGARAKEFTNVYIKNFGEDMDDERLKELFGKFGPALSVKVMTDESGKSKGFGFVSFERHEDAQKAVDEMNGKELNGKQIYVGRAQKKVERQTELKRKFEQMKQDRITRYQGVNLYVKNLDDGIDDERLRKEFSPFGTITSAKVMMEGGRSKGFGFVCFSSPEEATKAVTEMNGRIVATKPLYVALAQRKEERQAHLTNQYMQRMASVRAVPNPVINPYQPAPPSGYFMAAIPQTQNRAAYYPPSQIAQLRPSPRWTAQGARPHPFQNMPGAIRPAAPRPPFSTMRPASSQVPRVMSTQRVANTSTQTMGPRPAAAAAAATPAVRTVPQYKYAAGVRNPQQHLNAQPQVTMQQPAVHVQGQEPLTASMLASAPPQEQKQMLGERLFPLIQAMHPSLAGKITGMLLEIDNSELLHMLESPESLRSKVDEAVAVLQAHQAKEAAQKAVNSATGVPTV"}, "source": "paper PMC5494183", "note": "These are yes or no findings as the source states them, for the method shown. In cells and extracts the contact can be indirect. Some binding calls cover weakened binding; strength is not graded here."}
{"biological_target": "NEDD4, endogenous in germline stem cells (mouse (endogenous in GSCs)) (UniProt P46935)", "experiment": "co-IP; IP with an anti-NEDD4 antibody from lysates of GSCs incubated at 33 °C or 42 °C for 20 min, endogenous proteins; western blot"}
{"molecule": "PABP1, endogenous in germline stem cells (from UniProt P29341 1-636)", "binding": "binds"}
{"molecule": "DAZL, endogenous in germline stem cells (protein, UniProt Q64368 1-298) MSATTSEAPNSAVSREASTQSSSATTSQGYVLPEGKIMPNTVFVGGIDVRMDETEIRSFFARYGSVKEVKIITDRTGVSKGYGFVSFYNDVDVQKIVESQINFHGKKLKLGPAIRKQNLCTYHVQPRPLIFNPPPPPQFQSVWSSPNAETYMQPPTMMNPITQYVQAYPPYPSSPVQVITGYQLPVYNYQMPPQWPAGEQRSYVIPPAYTTVNYHCSEVDPGADILPNECSVHDAAPASGNGPQKKSVDRSIQTVVSCLFNPENRLRNSLVTQDDYFKDKRVHHFRRSRAVLKSDHLC", "binding": "binds"}
{"molecule": "TIAR, endogenous in germline stem cells (protein, UniProt P70318 1-392) MMEDDGQPRTLYVGNLSRDVTEVLILQLFSQIGPCKSCKMITEQPDSRRVNSSVGFSVLQHTSNDPYCFVEFYEHRDAAAALAAMNGRKILGKEVKVNWATTPSSQKKDTSNHFHVFVGDLSPEITTEDIKSAFAPFGKISDARVVKDMATGKSKGYGFVSFYNKLDAENAIVHMGGQWLGGRQIRTNWATRKPPAPKSTQETNTKQLRFEDVVNQSSPKNCTVYCGGIASGLTDQLMRQTFSPFGQIMEIRVFPEKGYSFVRFSTHESAAHAIVSVNGTTIEGHVVKCYWGKESPDMTKNFQQVDYSQWGQWSQVYGNPQQYGQYMANGWQVPPYGVYGQPWNQQGFGVDQSPSAAWMGGFGAQPPQGQAPPPVIPPPNQAGYGMASFPTQ", "binding": "no binding"}
